What all share (assay): log2 fold change, soluble protein after heating vs DMSO (PISA); higher = thermal stabilisation; K562 lysate, 10 uM; active = over 0.2 and 3.5 SD of the protein, either way, in both replicates (recomputed)
Compound in test [1]: C1=CC=C(C=C1)[C@H](COC2=CC3=C(C=C2)NC(=O)N3)NC(=O)C4=CC=CN(C4=O)CC5=CC(=C(C=C5)F)F
The procedure, abridged: (§1)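 K562 pellets were dounce-homogenised in PBS pH 7.4 with 1 mM MgCl2, and the crude extract at 1 mg/mL protein was treated with 10 μM compound for 30 min. Aliquots were heated for 3 min across 48°C-58°C, pooled, and brought to 0.5% NP-40 at 4°C; soluble protein was the supernatant after 21,000xg for 90 min. Soluble protein was quantified by TMTpro 16plex LC-MS/MS with channel sums equalised, and reported as log2 fold change in thermal stability against DMSO controls, with values from duplicates.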

Sequences of proteins named here, by UniProt entry; tags and fusion partners are left off. A change or cut given only in a name is not applied to a line headed by its entry.
UniProt Q9NQ34: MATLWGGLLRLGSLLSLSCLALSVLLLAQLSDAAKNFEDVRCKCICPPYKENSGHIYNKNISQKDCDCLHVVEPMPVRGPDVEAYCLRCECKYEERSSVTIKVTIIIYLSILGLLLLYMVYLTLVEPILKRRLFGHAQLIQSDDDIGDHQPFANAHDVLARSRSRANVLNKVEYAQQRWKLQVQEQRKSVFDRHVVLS
UniProt O94842: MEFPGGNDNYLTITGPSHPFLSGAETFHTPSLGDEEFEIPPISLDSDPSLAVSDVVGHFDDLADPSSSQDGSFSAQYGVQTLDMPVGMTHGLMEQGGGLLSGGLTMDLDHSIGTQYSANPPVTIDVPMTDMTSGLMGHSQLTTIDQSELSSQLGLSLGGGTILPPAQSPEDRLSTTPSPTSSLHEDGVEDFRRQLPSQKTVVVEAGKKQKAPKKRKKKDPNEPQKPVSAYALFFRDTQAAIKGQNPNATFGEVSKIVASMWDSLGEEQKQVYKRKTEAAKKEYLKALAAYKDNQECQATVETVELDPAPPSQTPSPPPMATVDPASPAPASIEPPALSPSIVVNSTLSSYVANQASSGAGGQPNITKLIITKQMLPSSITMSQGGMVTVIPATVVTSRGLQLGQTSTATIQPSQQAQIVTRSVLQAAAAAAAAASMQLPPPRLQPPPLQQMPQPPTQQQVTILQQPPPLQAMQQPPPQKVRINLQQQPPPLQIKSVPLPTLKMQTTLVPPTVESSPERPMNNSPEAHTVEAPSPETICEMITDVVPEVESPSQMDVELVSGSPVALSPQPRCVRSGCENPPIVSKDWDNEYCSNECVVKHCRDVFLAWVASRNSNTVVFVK
UniProt Q96MH6: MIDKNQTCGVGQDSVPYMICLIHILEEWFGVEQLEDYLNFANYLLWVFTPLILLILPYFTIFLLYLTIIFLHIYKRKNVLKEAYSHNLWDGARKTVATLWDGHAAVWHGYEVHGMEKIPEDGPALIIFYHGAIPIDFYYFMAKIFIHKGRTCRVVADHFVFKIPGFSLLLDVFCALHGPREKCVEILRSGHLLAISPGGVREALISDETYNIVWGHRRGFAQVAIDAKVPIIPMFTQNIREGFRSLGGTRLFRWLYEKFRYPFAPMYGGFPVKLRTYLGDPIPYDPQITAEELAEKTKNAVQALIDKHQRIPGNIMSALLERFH
UniProt Q9Y5L0: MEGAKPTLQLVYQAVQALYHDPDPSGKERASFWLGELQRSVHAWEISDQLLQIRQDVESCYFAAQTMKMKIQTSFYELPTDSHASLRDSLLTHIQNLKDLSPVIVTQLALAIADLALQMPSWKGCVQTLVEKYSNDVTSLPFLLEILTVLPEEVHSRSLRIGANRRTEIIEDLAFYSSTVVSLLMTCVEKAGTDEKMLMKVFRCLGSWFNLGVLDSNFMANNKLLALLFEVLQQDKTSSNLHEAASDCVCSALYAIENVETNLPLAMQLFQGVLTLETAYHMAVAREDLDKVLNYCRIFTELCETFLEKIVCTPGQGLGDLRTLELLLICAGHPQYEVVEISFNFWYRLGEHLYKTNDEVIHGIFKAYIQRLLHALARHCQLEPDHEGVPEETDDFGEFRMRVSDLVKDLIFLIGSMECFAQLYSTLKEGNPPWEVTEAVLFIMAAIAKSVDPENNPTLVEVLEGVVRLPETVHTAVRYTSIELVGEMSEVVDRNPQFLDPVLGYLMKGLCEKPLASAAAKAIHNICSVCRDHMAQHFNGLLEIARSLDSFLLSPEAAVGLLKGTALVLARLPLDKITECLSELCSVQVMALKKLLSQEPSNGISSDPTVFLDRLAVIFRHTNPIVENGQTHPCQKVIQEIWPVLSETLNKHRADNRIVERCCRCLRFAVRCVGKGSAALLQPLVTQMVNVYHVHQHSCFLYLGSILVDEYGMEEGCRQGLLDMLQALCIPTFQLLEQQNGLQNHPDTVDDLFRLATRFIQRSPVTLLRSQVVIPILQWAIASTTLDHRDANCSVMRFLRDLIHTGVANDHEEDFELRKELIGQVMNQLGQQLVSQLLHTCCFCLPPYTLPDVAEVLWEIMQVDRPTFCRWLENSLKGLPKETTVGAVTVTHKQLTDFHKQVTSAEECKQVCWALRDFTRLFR
UniProt O94826, whole entry, looked up: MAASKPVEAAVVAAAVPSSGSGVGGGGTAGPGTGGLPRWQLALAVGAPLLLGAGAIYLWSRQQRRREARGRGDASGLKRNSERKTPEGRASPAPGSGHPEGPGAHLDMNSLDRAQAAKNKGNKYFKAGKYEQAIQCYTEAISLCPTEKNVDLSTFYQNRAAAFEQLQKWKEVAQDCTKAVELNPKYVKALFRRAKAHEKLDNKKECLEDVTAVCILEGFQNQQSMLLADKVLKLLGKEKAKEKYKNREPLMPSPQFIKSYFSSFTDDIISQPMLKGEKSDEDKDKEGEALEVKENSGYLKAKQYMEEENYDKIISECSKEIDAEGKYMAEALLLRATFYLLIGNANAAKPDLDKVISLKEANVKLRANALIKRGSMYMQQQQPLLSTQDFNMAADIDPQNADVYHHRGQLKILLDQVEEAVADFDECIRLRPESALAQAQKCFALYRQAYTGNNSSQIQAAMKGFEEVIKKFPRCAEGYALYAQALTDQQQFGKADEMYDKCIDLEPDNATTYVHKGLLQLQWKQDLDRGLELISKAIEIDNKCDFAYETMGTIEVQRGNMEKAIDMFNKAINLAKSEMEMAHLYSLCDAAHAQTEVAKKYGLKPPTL
UniProt O14773: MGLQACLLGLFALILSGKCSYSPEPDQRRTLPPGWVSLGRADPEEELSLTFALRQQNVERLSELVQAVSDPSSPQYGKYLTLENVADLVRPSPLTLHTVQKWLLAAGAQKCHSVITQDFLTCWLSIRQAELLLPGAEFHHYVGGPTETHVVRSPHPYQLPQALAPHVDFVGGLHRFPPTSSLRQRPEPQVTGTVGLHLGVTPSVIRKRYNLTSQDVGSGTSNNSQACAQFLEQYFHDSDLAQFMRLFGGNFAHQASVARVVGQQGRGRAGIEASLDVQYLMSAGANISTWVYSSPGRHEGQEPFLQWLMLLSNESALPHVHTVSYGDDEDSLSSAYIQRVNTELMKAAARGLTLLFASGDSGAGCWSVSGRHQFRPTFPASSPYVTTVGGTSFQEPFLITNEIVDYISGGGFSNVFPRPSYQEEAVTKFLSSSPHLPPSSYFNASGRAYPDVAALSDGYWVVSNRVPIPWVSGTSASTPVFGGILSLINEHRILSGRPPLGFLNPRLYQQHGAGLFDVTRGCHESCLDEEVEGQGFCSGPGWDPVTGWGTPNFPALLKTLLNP
UniProt Q03169: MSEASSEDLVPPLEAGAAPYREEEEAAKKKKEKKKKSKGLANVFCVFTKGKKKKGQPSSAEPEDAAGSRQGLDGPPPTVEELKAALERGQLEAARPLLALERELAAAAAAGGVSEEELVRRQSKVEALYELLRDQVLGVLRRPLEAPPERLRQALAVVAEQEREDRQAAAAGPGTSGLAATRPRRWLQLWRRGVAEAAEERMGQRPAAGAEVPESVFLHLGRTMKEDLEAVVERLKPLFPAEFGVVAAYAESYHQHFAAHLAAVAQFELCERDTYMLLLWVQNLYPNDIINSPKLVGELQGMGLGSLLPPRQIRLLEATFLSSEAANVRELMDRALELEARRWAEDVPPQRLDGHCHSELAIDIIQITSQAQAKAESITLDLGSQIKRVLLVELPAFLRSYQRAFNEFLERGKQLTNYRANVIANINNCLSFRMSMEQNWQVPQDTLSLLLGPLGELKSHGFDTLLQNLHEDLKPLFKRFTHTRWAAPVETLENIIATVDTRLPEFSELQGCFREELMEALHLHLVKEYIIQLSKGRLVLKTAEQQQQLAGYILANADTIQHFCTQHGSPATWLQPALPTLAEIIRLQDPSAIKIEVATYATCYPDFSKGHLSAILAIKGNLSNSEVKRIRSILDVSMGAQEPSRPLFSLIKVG
UniProt O14657: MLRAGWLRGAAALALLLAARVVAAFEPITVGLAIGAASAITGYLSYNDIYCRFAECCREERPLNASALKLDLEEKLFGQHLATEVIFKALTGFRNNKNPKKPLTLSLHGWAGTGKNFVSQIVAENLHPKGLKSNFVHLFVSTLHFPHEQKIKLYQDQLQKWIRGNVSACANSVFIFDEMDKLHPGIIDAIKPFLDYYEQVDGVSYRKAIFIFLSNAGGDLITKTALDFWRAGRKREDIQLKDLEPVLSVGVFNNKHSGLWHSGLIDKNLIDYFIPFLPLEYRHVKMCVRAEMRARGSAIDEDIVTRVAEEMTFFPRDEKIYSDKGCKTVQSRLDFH
UniProt P13693: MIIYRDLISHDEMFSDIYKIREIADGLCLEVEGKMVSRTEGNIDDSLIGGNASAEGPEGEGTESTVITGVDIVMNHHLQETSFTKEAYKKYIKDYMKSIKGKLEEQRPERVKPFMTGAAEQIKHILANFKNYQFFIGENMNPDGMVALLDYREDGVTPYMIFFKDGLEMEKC
UniProt Q9NYL9: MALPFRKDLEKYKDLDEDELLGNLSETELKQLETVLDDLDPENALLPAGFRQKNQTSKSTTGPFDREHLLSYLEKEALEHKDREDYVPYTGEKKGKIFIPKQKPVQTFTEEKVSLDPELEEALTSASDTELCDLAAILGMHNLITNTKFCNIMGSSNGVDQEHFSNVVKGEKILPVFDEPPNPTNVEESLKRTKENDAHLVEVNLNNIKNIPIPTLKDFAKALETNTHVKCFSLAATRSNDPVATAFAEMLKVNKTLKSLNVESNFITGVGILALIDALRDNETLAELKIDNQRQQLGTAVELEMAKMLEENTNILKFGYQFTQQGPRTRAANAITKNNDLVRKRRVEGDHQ
UniProt Q5JU69: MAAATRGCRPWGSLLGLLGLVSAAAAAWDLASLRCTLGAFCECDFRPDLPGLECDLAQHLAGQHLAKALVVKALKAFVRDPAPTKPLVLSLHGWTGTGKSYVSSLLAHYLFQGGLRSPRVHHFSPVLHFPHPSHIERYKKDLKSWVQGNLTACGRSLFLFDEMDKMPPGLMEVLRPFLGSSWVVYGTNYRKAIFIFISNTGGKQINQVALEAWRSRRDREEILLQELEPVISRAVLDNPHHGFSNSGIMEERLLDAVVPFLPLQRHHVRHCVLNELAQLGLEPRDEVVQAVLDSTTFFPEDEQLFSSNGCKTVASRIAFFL
UniProt O14656: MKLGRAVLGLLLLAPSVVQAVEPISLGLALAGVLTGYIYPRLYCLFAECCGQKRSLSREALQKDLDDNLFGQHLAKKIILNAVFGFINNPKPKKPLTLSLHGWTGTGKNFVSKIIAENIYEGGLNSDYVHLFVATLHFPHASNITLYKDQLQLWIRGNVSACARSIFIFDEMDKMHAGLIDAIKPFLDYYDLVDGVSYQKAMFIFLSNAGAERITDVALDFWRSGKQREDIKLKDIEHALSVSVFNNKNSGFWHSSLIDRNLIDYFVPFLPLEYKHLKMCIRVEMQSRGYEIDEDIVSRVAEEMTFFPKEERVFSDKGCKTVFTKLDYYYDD
UniProt Q15025: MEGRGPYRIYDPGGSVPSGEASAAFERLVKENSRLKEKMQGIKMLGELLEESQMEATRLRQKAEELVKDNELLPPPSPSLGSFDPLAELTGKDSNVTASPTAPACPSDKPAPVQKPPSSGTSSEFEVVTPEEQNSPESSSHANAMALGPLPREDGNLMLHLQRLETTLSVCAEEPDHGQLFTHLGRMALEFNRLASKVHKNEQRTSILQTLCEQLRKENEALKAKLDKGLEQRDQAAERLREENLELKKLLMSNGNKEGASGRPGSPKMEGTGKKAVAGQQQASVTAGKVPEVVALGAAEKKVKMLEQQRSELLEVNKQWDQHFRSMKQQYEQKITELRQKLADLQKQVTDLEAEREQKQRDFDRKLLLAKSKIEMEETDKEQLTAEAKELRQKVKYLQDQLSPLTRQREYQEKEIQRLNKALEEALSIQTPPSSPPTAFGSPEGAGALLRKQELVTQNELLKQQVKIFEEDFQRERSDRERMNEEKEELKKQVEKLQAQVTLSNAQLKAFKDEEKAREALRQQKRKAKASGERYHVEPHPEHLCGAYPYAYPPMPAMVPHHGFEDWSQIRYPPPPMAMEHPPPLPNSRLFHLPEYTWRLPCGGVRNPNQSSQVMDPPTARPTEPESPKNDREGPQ
UniProt Q96K49: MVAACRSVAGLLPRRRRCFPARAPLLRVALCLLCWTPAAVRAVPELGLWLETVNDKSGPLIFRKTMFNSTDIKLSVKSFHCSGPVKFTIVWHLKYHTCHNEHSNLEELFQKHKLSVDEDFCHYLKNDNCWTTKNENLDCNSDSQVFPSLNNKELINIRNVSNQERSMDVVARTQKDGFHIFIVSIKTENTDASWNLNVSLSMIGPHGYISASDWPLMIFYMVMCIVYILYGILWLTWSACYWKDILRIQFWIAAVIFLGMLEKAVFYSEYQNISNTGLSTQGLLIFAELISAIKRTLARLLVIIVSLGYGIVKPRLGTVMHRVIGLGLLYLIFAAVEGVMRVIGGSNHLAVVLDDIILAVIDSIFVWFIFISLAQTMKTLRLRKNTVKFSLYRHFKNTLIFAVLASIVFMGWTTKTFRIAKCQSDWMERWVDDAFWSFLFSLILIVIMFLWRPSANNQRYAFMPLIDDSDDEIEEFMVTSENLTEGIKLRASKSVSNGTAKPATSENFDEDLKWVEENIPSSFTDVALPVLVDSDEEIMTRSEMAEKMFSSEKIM

Compound in test [2]: CC1=C(SC2=C1C(=N[C@H](C3=NN=C(N32)C)CC(=O)N)C4=CC=C(C=C4)Cl)C
A digest of the protocol: as §1

Compound in test [3]: CC1=C2C(=CC=C1)N=C(N(C2=O)C3=CC=CC=C3C)CN4C=NC5=C(N=CN=C54)N
A digest of the protocol: as §1

Compound in test [4]: Cc1sc2c(c1C)C(c1ccc(Cl)cc1)=N[C@@H](CC(=O)OC(C)(C)C)c1nnc(C)n1-2
A digest of the protocol: as §1

Compound in test [5]: c1ccc([C@@H]2C[C@H]2NC2CCNCC2)cc1
A digest of the protocol:
as §1

Some of the results follow.

For TMEM9B (UniProt Q9NQ34), the log2 fold change in test [1] is inactive: -0.031; in test [2], inactive: -0.007; in test [3] it was inactive: 0.051; in test [4], inactive: 0.052; in test [5] it was inactive: 0.046.

For the target TOX4 (UniProt O94842), the log2 fold change in test [1] is inactive: -0.011; in test [2], inactive: 0.001; in test [3], inactive: -0.021; in test [4], inactive: -0.019; in test [5] it was inactive: -0.146.

Regarding TOP2B isoform 2 (UniProt Q02880), the log2 fold change in test [1] was inactive: 0.007; in test [2], inactive: 0.013; in test [3], inactive: -0.025; in test [4], inactive: -0.007; in test [5], inactive: 0.132.

Take TMEM68 (UniProt Q96MH6): the log2 fold change in test [1] is inactive: 0.008; in test [2] it was inactive: -0.028; in test [3], inactive: 0.013; in test [4], inactive: 0.029; in test [5], inactive: -0.039.

With TNPO3 (UniProt Q9Y5L0), the log2 fold change in test [1] was inactive: -0.024; in test [2], inactive: 0.07; in test [3] it was inactive: -0.003; in test [4] it was inactive: 0.009; in test [5], inactive: -0.029.

For the target TOMM70 (UniProt O94826), the log2 fold change in test [1] was inactive: -0.025; in test [2], inactive: 0.003; in test [3] it was inactive: 0.024; in test [4] it was inactive: 0.039; in test [5], inactive: 0.04.

In the case of TPP1 (UniProt O14773), the log2 fold change in test [1] was inactive: -0.032; in test [2], inactive: -0.012; in test [3], inactive: -0.025; in test [4] it was inactive: -0.017; in test [5] it was inactive: 0.006.

Turning to TOM1L1 (UniProt O75674), the log2 fold change in test [1] was inactive: -0.013; in test [2] it was inactive: 0.029; in test [3], inactive: -0.005; in test [4], inactive: 0.053; in test [5] it was inactive: -0.034.

As to TOR4A (UniProt Q9NXH8), the log2 fold change was inactive: 0.01 in test [1]; inactive: 0.016 in test [2]; inactive: -0.001 in test [3]; inactive: -0.039 in test [4]; inactive: 0.018 in test [5].

Consider TNFAIP2 (UniProt Q03169), for which the log2 fold change in test [1] was inactive: -0.034; in test [2] it was inactive: 0.024; in test [3], inactive: 0.027; in test [4] it was inactive: 0.002; in test [5], inactive: -0.059.

On to TOR1B (UniProt O14657), for which the log2 fold change in test [1] is inactive: -0.003; in test [2] it was inactive: 0.003; in test [3] it was inactive: 0.066; in test [4] it was inactive: 0.053; in test [5] it was inactive: -0.022.

In the case of TPT1 (UniProt P13693), the log2 fold change in test [1] was inactive: 0.04; in test [2], inactive: -0.006; in test [3] it was inactive: -0.025; in test [4], inactive: 0.005; in test [5], inactive: 0.006.

Turning to TOR1AIP2 (UniProt Q9H496), the log2 fold change in test [1] was inactive: -0.018; in test [2] it was inactive: 0.17; in test [3] it was inactive: 0.173; in test [4], inactive: -0.116; in test [5], inactive: 0.145.

Take TMOD3 (UniProt Q9NYL9): the log2 fold change is inactive: 0.042 in test [1]; inactive: 0.012 in test [2]; inactive: -0.027 in test [3]; inactive: -0.034 in test [4]; inactive: -0.007 in test [5].

In the case of TOP3B (UniProt O95985), the log2 fold change in test [1] was inactive: -0.013; in test [2] it was inactive: 0.014; in test [3], inactive: 0.008; in test [4], inactive: -0.006; in test [5], inactive: 0.003.

Take TOR2A (UniProt Q5JU69): the log2 fold change in test [1] is inactive: 0.037; in test [2], inactive: 0.002; in test [3] it was inactive: -0.014; in test [4] it was inactive: -0.039; in test [5], inactive: 0.103.

TOR1A (UniProt O14656): the log2 fold change in test [1] was inactive: 0.001; in test [2], inactive: 0.034; in test [3], inactive: 0.052; in test [4], inactive: 0.029; in test [5], inactive: -0.031.

Regarding TOMM5 (UniProt Q8N4H5), the log2 fold change is inactive: 0.004 in test [1]; inactive: -0.032 in test [2]; inactive: 0 in test [3]; inactive: 0.028 in test [4]; inactive: 0.237 in test [5].

For TMEM189-UBE2V1 (UniProt I3L0A0), the log2 fold change in test [1] is inactive: 0.001; in test [2], inactive: -0.036; in test [3], inactive: 0.014; in test [4], inactive: -0.048; in test [5], inactive: -0.041.

Consider TNIP1 (UniProt Q15025), for which the log2 fold change was inactive: -0.044 in test [1]; inactive: 0.036 in test [2]; inactive: -0.067 in test [3]; inactive: -0.019 in test [4]; inactive: -0.066 in test [5].

For TMEM87B (UniProt Q96K49), the log2 fold change in test [1] is active: 0.529; in test [2] it was inactive: 0.02; in test [3], inactive: 0.075; in test [4] it was inactive: 0.001; in test [5] it was inactive: 0.038.

In the case of TPP2 (UniProt Q5VZU9), the log2 fold change is inactive: 0.004 in test [1]; inactive: -0.117 in test [2]; inactive: 0.001 in test [3]; inactive: 0.034 in test [4]; inactive: -0.08 in test [5].

On to TMEM30A (UniProt Q9NV96), for which the log2 fold change in test [1] is inactive: 0.047; in test [2], inactive: -0.013; in test [3] it was inactive: -0.007; in test [4] it was inactive: -0.014; in test [5], inactive: -0.008.

Consider TPP2 (UniProt P29144), for which the log2 fold change was inactive: 0.006 in test [1]; inactive: 0.008 in test [2]; inactive: -0.002 in test [3]; inactive: 0.039 in test [4]; inactive: 0.025 in test [5].

The values are drawn from the supplement of paper PMC10849652.
